Data from PubChem BioAssay AID1347076 (National Center for Advancing Translational Sciences (NCATS), 2019).
Hit rate of the full screen: of about 400,000 compounds, about 13,000 (3.2%) were called active. The inconclusive results got no clear call from the source; some entries with a clear call stand among them for comparison. Calls come from the whole dose curve; as a rule, active = well fitted cell-killing curve with a large enough effect; inconclusive = small, poorly fitted or top-dose-only effect, or effect the other way; inactive = flat fitted curve, though single readings scatter. Where the call is inconclusive, the potency comes from a doubtful curve fit.

Test: qHTS assay for MDR1-selective chemotherapeutics: Primary screen using the drug-selected MDR subline cells KB-V1; note: nearly all actives have a fitted effect of over 60% in size
Settings: KB-V1 MDR cells viability, CellTiter-Glo, 72 h; activity change, negative = cytotoxicity: at 46.1 µM (top of the series)
Outline: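 Cytotoxicity via CellTiter-Glo luminescence after 72 h compound exposure at 37 degrees C. Cells: drug-selected KB-V1 line, DMEM phenol-red free plus 10% FBS. Compounds tested at multiple concentrations; normalized data fitted to concentration-effect curves.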
% is set by controls: 0 for no effect and ±100 for the full control effect; potency is the fitted concentration of half-maximal effect.

SMILES	Potency	activity change, negative = cytotoxicity
CN(C)S(=O)(=O)c1cccc(NC(=O)c2cccc(S(=O)(=O)N3CCCCCC3)c2)c1	inconclusive: 20.6 µM [cytotoxic, partial curve, poor fit]	–
O=C(CNC(=O)c1ccccc1)N/N=C/c1cn[nH]c1-c1ccccc1	–	inactive: 20%
CC(=O)Nc1cc[n+](C(C)C(=O)c2ccc(Cl)cc2)cc1 (stereo not given)	inconclusive: 20.6 µM [rising, partial curve, poor fit]	–
O=C(COc1coc(CN2CCN(c3ccc(F)cc3)CC2)cc1=O)NC1CCCCC1	active: 4.11 µM	–
O=C(CSc1nc2ccccc2c(=O)[nH]1)Nc1ccc(N2CCOCC2)c(Cl)c1	inconclusive: 29.1 µM [cytotoxic, single point]	–
COc1cc(OC)cc(C(=O)NCC(=O)OCC(=O)NC(C)CCc2ccccc2)c1 (stereo not given)	inconclusive: 23.1 µM [rising, single point]	–
COc1ccccc1S(=O)(=O)N(C)C[C@@H]1OCc2cn(nn2)CCCC(=O)N([C@@H](C)CO)C[C@H]1C	–	inactive: 25%
Cc1cc(C(=O)OC(C)C(=O)NC2CCCCC2C)c2ccccc2n1 (stereo not given)	–	inactive: -2.63%
COc1cc(/C=N/n2c(-c3cc(C)[nH]n3)n[nH]c2=S)cc(OC)c1OC	inconclusive: 8.2 µM [rising, partial curve, poor fit]	–
CCOC(=O)c1c(S(=O)(=O)N2CCCCC2C)c(C)n(C)c1C (stereo not given)	–	inactive: -8.08%
CSc1ccc(N2CCN(CCCNC(=O)Nc3ccccc3F)CC2)cc1	inconclusive: 9.2 µM [cytotoxic, partial curve]	–
CCOC(=O)CSc1nnc(-c2cccnc2)o1	inconclusive: 20.6 µM [rising, partial curve, poor fit]	–
CCOc1ccc(NC(=O)CCc2c(C)nc3c4c(C)cc(C)nc4nn3c2C)cc1	–	inactive: 7.19%
O=C(c1ccccc1-c1nc(-c2ccccc2)no1)N1CCOCC1	active: 11.6 µM	–
CCOc1ccccc1NC1=CC(=O)CC(c2ccccc2)C1 (stereo not given)	inconclusive: 20.6 µM [cytotoxic, single point]	–
O=C(Nc1nc(-c2ccccc2)nc2ccccc12)c1ccc(F)cc1	–	inactive: -2.55%
Oc1ccccc1/C=N/NC(=S)NC1CC2CC1C1C=CCC21 (stereo not given)	active: 20.6 µM	–
Cc1nc(Nc2nc3ccccc3o2)nc(C)c1C	inconclusive: 18.4 µM [cytotoxic, partial curve, poor fit]	–
CN(Cc1ccccc1)c1ccc2cc(S(=O)(=O)N3CCCCC3)ccc2n1	inconclusive: 18.4 µM [rising, single point]	–
CC(O)CNCCCOc1ccc(Cl)cc1C(C)(C)C (stereo not given)	active: 20.6 µM	–
N#CC1=C(N)Oc2cc(O)ccc2C1c1cccnc1 (stereo not given)	inconclusive: 25.9 µM [rising, single point]	–
CCOc1ccc(NC(=O)CCN2C(=S)NC(C)(C)CC2C)cc1 (stereo not given)	inconclusive: 3.66 µM [cytotoxic, full curve, poor fit]	–
C1=C(CCNCC2CCCCC2)CCCC1	inconclusive: 14.6 µM [cytotoxic, partial curve, poor fit]	–

SMILES	Potency	activity change, negative = cytotoxicity
CCOC(=O)c1c(N)n(-c2ccc(N)cc2)c2nc3ccccc3nc12	–	inactive: 1.54%
NC(=S)N/N=C\c1ccc(-c2cccc(Cl)c2Cl)o1	active: 1.3 µM	–
COc1cc(/C=C2\SC(=S)N(Nc3ccccc3)C2=O)cc(OC)c1OC	–	inactive: -5.86%
N#Cc1ccccc1S(=O)(=O)N1CCN(C(=O)C2COc3ccccc3O2)CC1 (stereo not given)	active: 20.6 µM	–
O=S1(=O)N=C(Sc2cccc3cccnc23)c2ccccc21	inconclusive: 29.1 µM [cytotoxic, single point]	–
CC(C)C[C@H](NC(=O)c1nc[nH]c1C(=O)N[C@@H](CC(C)C)C(=O)OCc1ccccc1)C(=O)OCc1ccccc1	inconclusive: 32.6 µM [cytotoxic, single point]	–
Cc1ccc(/C=C(/C#N)C(=O)NC(=O)Oc2ccccc2)cc1	inconclusive: 18.4 µM [rising, single point]	–
CCNC(=O)C1(C)CCCN(C(=O)c2cccc(C)c2C)C1 (stereo not given)	–	inactive: 2.01%
COc1ccc(-c2nnc(CSc3nc4ccccc4c(=O)n3C)o2)cc1OC	active: 3.66 µM	–
N/C(=N\OC(=O)c1ccccc1Cl)c1ccncc1	inconclusive: 29.1 µM [cytotoxic, single point]	–
Cc1cc(=O)n2c3ccccc3n(CC(O)CN3CCCC3)c2c1C#N (stereo not given)	inconclusive: 29.1 µM [cytotoxic, single point]	–
C/C=C/C=C\C(=O)Nc1cccc(C2=NOC3(C2)C[C@H](C(N)=O)N(C(=O)/C=C/C)C3)c1 (stereo not given in full)	inconclusive: 18.4 µM [cytotoxic, single point]	–
O=C(/C=C/c1cccs1)Nc1nc(-c2ccccc2)cs1	active: 14.6 µM	–
COc1cc(C(=O)N2CCC(C(=O)Nc3cccc(C(C)=O)c3)CC2)cc(OC)c1OC	inconclusive: 14.6 µM [rising, partial curve, poor fit]	–
COc1ccc(CNc2nc(NCc3ccc(OC)cc3)c3ncn(C4CCCC4)c3n2)cc1	inconclusive: 29.1 µM [cytotoxic, single point]	–
O=[N+]([O-])c1ccc(Sc2cccc[n+]2[O-])c2nonc12	inconclusive: 23.1 µM [cytotoxic, single point]	–
CCNC(=S)NNC(=O)c1cccn(Cc2ccc(Cl)cc2Cl)c1=O	inconclusive: 32.6 µM [cytotoxic, partial curve, poor fit]	–
O=[N+]([O-])c1ccc(CSc2nc3ccccc3[nH]2)cc1	active: 20.6 µM	–
CC(=O)NC(C)C(c1cccs1)N1CCN(c2ccccc2)CC1 (stereo not given)	inconclusive: 20.6 µM [cytotoxic, partial curve]	–
Cc1ccc(S(=O)(=O)N2CCCCC2)cc1NC(=O)CSc1ncnc2ccccc12	active: 16.4 µM	–
Cc1ccc(NC(=O)c2ccc3c(c2)OCCO3)nc1	inconclusive: 16.4 µM [cytotoxic, single point]	–
Cc1ccccc1-n1c(SCC(=O)Nc2cccc3ccccc23)nc(O)cc1=O	inconclusive: 3.26 µM [rising, full curve]	–

In another format: entries from further up
N/C(=N\OC(=O)c1ccccc1Cl)c1ccncc1
  Potency: inconclusive: 29.1 µM [cytotoxic, single point]
Cc1cc(=O)n2c3ccccc3n(CC(O)CN3CCCC3)c2c1C#N (stereo not given)
  Potency: inconclusive: 29.1 µM [cytotoxic, single point]
C/C=C/C=C\C(=O)Nc1cccc(C2=NOC3(C2)C[C@H](C(N)=O)N(C(=O)/C=C/C)C3)c1 (stereo not given in full)
  Potency: inconclusive: 18.4 µM [cytotoxic, single point]
